The values that follow come from PubChem BioAssay AID330 (DTP/NCI, 2004).

This experiment has as its system P388 leukemia ip, CD2F1 mice, survival T/C. The experiment is described as follows: NCI In Vivo Anticancer Drug Screen. Data for tumor model P388 Leukemia (intraperitoneal) in CD2F1 (CDF1) mice. Conditions: T/C endpoint: median survival time, higher T/C = longer survival.
[1] abbreviates: dose: 400.0 mg/kg/injection, schedule: Q04DX003 (ip), vehicle: saline with Tween-80.
Setting [2] is: dose: 200.0 mg/kg/injection, schedule: Q01DX005 (ip), vehicle: Klucel (hydroxypropylcellulose) (HPC).
[3] abbreviates: dose: 25.0 mg/kg/injection, schedule: Q01DX009 (ip), vehicle: Klucel (hydroxypropylcellulose) (HPC).
[4] abbreviates: dose: 50.0 mg/kg/injection, schedule: Q01DX009 (ip), vehicle: Klucel (hydroxypropylcellulose) (HPC).
The mark [5] stands for this setting: dose: 100.0 mg/kg/injection, schedule: Q01DX009 (ip), vehicle: Klucel (hydroxypropylcellulose) (HPC).
Where [6] appears, read: dose: 200.0 mg/kg/injection, schedule: Q01DX009 (ip), vehicle: Klucel (hydroxypropylcellulose) (HPC).
Where [7] appears, read: dose: 200.0 mg/kg/injection, schedule: Q01DX009 (ip), vehicle: saline with Tween-80.
[8] abbreviates: dose: 100.0 mg/kg/injection, schedule: Q04DX002 (ip), vehicle: saline with Tween-80.

The list does not hold the whole screen: it is rich in T/C values a quarter to a half above the control, in often repeated tests (any T/C) and in doses without a T/C. Further doses and runs are listed elsewhere. T/C: endpoint of the treated group in % of that of the vehicle group. Some doses have a count of surviving animals in place of a T/C: the source holds a T/C of zero for them, seemingly a mark for toxic or unscored doses. Some survivor counts are full or nearly so, which does not show that the dose was tolerated: the source hardly ever lists a survival T/C far under the control, and the zero likely stands for such cases as well. Survivors were counted at the toxicity check, usually on the fifth day, unless a day is given; later deaths do not show. Schedule codes are those of the source, taken here to give the interval after Q, in days (D) or hours (H), and the number of doses after X. Some doses were run more than once; the values are given in rising order. Where survival is the endpoint, this PubChem deposit counts one and a half times the control or more as active, and values a quarter to a half above the control carry no call in these data; other NCI protocols may use other cut-offs. Some T/C values carry the count of animals alive at the toxicity check (mostly the fifth day); where none is given, no animal had died by that day.

Consider `Cc1nc2c([N+](=O)[O-])c(N(C)C)c([N+](=O)[O-])cc2[nH]1`, for which the survivor count was 0 of 6 and 1 of 6 (dose: 100.0 mg/kg/injection, schedule: Q04DX003 (ip), vehicle: saline with Tween-80); 0 of 6 (dose: 200.0 mg/kg/injection, schedule: Q04DX003 (ip), vehicle: saline with Tween-80); 0 of 6 under setting [1].
Turning to `CC(C)=CCCC(C)(OC1OC(CO)C(O)C(O)C1O)C1CCC2(C)C1C(O)CC1C3(C)CCC(O)C(C)(C)C3C(OC3OC(CO)C(O)C(O)C3OC3OC(C)C(O)C(O)C3O)CC12C` (stereo not given) (tested in a mixture with another compound), the survivor count (dose: 300.0 mg/kg/injection, schedule: Q01DX009 (ip), vehicle: Klucel (hydroxypropylcellulose) (HPC)) is given as 0 of 6.
For the compound `CCN(CC)Cc1c(O)ccc(C(C)=O)c1O`, where the note is “dose: 200.0 mg/kg/injection, schedule: Q01DX005 (ip), vehicle: saline”, the survivor count was 4 of 6.
For `CC(=O)Nc1ccc(C(=O)CN(Cc2ccccc2)Cc2ccccc2)cc1`, under setting [2], the survivor count is 5 of 5.
Regarding `CN(C)N=Nc1ccc(N(C)C)cc1`, the survivor count is 2 of 6 (dose: 6.25 mg/kg/injection, schedule: Q01DX009 (ip), vehicle: Klucel (hydroxypropylcellulose) (HPC)); 2 of 6 (dose: 12.5 mg/kg/injection, schedule: Q01DX009 (ip), vehicle: Klucel (hydroxypropylcellulose) (HPC)); 0 of 6 under setting [3]; 4 of 6 under setting [4]; 6 of 6 under setting [5]; 4 of 6 under setting [6]. Moreover, for the setting “dose: 400.0 mg/kg/injection, schedule: Q01DX009 (ip), vehicle: Klucel (hydroxypropylcellulose) (HPC)”, the survivor count is given as 4 of 6.
As to `COC1=C(OC)C(=O)C(Sc2ccc3ccccc3c2)=CC1=O`, the survivor count is, setting by setting: (dose: 50.0 mg/kg/injection, schedule: Q01DX009 (ip), vehicle: saline with Tween-80) 3 of 6; (dose: 100.0 mg/kg/injection, schedule: Q01DX009 (ip), vehicle: saline with Tween-80) 0 of 6 and 3 of 6; under setting [7], 0 of 6.
As for `Oc1ccccc1N=Nc1ccccc1O.[O]=[V]`, the survivor count reads like this: under setting [3], 5 of 6; under setting [4], 6 of 6; under setting [5], 6 of 6; under setting [6], 1 of 6.
As for `CCOC(=O)C(Cc1c[nH]c2ccccc12)NC(=O)C1(O)C(O)C2(CC)C=CCN3CCC4(c5cc(C6(C(=O)OC)CC7CC(CC)CN(CCc8c6[nH]c6ccccc86)C7)c(OC)cc5N(C)C14)C32` (stereo not given), the T/C (dose: 2.0 mg/kg/injection, schedule: Q01DX001 (ip), vehicle: saline) was 125 % of control; the T/C (dose: 4.0 mg/kg/injection, schedule: Q01DX001 (ip), vehicle: saline) was 138 % of control; the T/C (dose: 8.0 mg/kg/injection, schedule: Q01DX001 (ip), vehicle: saline) was 126 and 149 % of control; the T/C (dose: 16.0 mg/kg/injection, schedule: Q01DX001 (ip), vehicle: saline) was 131 % of control; the T/C (dose: 32.0 mg/kg/injection, schedule: Q01DX001 (ip), vehicle: saline) is 142 % of control. Also, the survivor count (dose: 64.0 mg/kg/injection, schedule: Q01DX001 (ip), vehicle: saline) is reported as 2 of 6.
For `Cc1c2cnccc2c(CO)c2[nH]c3ccccc3c12`, the T/C (dose: 25.0 mg/kg/injection, schedule: Q04DX002 (ip), vehicle: saline with Tween-80) is 125 and 128 % of control; the T/C (dose: 50.0 mg/kg/injection, schedule: Q04DX002 (ip), vehicle: saline with Tween-80) is 133 and 135 % of control; the T/C under setting [8] was 143 % of control.
Regarding `O=S(=O)(O)C1=CC(=N/Cl)/C=CC/1=N\Cl`, the survivor count (dose: 400.0 mg/kg/injection, schedule: Q01DX005 (ip), vehicle: saline) was 3 of 5.
Turning to `O=NNc1cnc2ccccc2n1`, the survivor count (dose: 100.0 mg/kg/injection, schedule: Q01DX009 (ip), vehicle: water) was 3 of 6.
With `CC1=C(/C=C/C(C)=C/C=C/C(C)=C/C(=O)O)C(C)(C)CCC1`, under setting [1], the survivor count was 1 of 6.
Turning to `CC(=O)c1ccc(N=C2c3ccccc3CN2c2ccc(C(C)=O)cc2)cc1`, where the note is “dose: 200.0 mg/kg/injection, schedule: Q01DX005 (ip), vehicle: saline with Tween-80”, the survivor count is on record as 6 of 6.
As to `CCC(C)N(C(=O)c1ccccc1)c1ccccc1` (stereo not given), under “dose: 50.0 mg/kg/injection, schedule: Q01DX009 (ip), vehicle: other”, the T/C is 128 % of control [5 of 6 alive]. Also, the survivor count was 2 of 6 (dose: 100.0 mg/kg/injection, schedule: Q01DX009 (ip), vehicle: other) and 3 of 6 (dose: 100.0 mg/kg/injection, schedule: Q01DX009 (ip), vehicle: saline + Tween-80 + alcohol).
For the compound `N=C(N)SCCCC(=O)O`, the survivor count is reported as 3 of 6 (dose: 50.0 mg/kg/injection, schedule: Q01DX009 (ip), vehicle: saline); 1 of 6 (dose: 100.0 mg/kg/injection, schedule: Q01DX009 (ip), vehicle: saline); 0 of 6 (dose: 200.0 mg/kg/injection, schedule: Q01DX009 (ip), vehicle: saline).
Consider `CC(C)C(NC(=O)C(CSCc1ccccc1)NC(=O)OCc1ccccc1)C(=O)O` (stereo not given), for which, under setting [2], the survivor count is on record as 2 of 6.
Turning to `BrCC[Se]c1ccccc1`, under setting [7], the survivor count was 0 of 6.
For `COC(=O)CCCN1CC2C=C(C#N)C1C(C(=O)OC)C2` (stereo not given), the survivor count (dose: 240.0 mg/kg/injection, schedule: Q01DX005 (ip), vehicle: saline) is given as 5 of 6.
On to `C[C@H]1O[C@H](C)[C@H](O)C2=C1C(=O)c1ccccc1C2=O`, for which the T/C under setting [8] was 94, 103 [5 of 6 alive], 105, 128 % of control. The survivor count (dose: 200.0 mg/kg/injection, schedule: Q04DX002 (ip), vehicle: saline with Tween-80) was 2 of 6 and 3 of 6; the survivor count (dose: 400.0 mg/kg/injection, schedule: Q04DX002 (ip), vehicle: saline with Tween-80) is recorded as 5 of 6.
`OCc1c(CO)c(-c2ccc(Cl)c(Cl)c2)n2c1CCC2`: the T/C by setting is: under setting [7], 131 % of control; (dose: 400.0 mg/kg/injection, schedule: Q01DX009 (ip), vehicle: saline with Tween-80) 127 and 138 % of control.
Regarding `C[CH2][Sn]([F])([F])[CH2]C`, the survivor count is on record as 0 of 6 (dose: 100.0 mg/kg/injection, schedule: Q04DX003 (ip), vehicle: saline); 0 of 6 (dose: 200.0 mg/kg/injection, schedule: Q04DX003 (ip), vehicle: saline); 0 of 6 (dose: 400.0 mg/kg/injection, schedule: Q04DX003 (ip), vehicle: saline).
